Measurements taken from US20050053985A1.
Results are given in words; binding and its absence hold for the method and conditions named. In cells and extracts the contact can be indirect. Some results given as binding are weak or reduced against the parent protein; the word gives no strength. Where a sequence is shown, tags or fusion partners need not be part of it.

Columns and labels:
[1] = target: T1, HsSen54 (human) (UniProt Q7Z6J9); assay: co-purification (anti-Flag then Ni beads), SDS-PAGE, silver staining
T1 sequence (looked up): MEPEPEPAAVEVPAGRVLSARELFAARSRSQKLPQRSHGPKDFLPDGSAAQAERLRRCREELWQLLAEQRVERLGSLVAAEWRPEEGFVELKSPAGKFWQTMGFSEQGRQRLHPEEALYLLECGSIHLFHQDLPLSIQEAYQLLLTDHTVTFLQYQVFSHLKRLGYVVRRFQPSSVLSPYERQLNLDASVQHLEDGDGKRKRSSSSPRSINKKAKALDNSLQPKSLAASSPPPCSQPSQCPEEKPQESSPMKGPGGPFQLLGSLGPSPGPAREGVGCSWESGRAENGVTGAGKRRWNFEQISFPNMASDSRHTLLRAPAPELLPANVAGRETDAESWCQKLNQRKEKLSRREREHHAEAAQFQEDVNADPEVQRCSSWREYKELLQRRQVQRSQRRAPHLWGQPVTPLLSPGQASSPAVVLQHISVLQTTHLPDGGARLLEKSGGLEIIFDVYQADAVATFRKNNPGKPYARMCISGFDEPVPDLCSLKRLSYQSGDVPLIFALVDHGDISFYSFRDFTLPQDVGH

[2] = target: T2, HsSen2 (human) (UniProt Q8NCE0); assay: as above
T2 sequence (looked up): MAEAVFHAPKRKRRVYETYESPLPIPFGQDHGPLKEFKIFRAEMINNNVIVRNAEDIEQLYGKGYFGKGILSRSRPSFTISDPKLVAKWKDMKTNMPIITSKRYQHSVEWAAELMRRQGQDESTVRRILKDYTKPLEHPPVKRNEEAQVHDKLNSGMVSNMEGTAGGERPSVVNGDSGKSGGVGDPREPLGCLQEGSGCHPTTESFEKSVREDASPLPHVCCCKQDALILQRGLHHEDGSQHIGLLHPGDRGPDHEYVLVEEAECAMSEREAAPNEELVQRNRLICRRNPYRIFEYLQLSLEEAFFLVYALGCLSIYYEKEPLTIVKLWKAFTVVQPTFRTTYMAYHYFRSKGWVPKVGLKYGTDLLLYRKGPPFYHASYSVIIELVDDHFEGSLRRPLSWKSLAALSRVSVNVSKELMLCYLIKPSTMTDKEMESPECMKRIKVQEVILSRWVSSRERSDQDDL

[3] = target: T3, HsSen34 (human) (UniProt Q9BSV6); assay: as above
T3 sequence (looked up): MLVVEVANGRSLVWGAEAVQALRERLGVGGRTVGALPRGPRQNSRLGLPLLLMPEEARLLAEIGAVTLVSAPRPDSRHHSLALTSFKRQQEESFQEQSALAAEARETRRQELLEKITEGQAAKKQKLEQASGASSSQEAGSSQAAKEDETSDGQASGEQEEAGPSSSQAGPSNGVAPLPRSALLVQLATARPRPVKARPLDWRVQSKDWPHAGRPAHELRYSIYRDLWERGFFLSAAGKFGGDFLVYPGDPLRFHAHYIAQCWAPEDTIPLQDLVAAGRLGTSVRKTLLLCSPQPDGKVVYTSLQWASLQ

[4] = target: T4, Symplekin (human) (UniProt Q92797); assay: co-purification with the His-Flag-tagged bait from stable 293 cells (anti-Flag beads, then Ni beads); SDS-PAGE, Western blot with anti-Symplekin antibody
T4 sequence (looked up): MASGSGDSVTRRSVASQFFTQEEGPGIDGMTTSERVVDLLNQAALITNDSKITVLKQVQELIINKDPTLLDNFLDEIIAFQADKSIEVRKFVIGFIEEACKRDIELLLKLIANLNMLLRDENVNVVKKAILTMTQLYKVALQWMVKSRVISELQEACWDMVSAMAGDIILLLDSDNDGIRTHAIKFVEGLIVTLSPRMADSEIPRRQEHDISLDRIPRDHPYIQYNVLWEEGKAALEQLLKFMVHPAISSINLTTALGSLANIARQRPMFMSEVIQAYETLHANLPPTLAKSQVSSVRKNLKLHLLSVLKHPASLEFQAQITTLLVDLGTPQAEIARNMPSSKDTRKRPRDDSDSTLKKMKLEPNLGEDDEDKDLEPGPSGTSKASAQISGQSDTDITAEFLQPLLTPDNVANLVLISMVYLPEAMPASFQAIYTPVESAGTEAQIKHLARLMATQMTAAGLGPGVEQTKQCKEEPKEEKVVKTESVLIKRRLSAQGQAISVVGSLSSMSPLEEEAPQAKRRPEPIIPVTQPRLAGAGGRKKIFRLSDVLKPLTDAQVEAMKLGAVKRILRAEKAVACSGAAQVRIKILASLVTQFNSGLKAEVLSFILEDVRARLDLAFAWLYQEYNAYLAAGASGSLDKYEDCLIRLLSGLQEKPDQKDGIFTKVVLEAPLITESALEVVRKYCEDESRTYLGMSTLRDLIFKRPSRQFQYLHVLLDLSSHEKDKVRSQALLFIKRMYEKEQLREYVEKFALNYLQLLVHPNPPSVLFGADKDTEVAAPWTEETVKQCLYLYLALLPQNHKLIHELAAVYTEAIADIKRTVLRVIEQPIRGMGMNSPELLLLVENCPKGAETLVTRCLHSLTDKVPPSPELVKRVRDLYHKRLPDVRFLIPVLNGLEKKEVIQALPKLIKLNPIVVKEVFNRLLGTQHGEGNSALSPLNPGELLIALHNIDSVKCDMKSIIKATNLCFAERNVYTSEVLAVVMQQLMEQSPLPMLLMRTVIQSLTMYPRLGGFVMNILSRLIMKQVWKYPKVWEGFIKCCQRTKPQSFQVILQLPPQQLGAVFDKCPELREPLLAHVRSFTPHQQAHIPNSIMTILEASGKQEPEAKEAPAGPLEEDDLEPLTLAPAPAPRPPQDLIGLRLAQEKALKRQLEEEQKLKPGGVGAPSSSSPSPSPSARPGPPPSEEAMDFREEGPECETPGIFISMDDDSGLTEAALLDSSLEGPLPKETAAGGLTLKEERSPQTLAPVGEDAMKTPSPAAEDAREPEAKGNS

binding [1]: binds
binding [2]: binds
binding [3]: binds
binding [4]: binds
B1: His-Flag-HsClp1 (protein, human, UniProt Q92989 1-425, looked up, not shown: small tags and cut ends)
chain: MGEEANDDKKPTTKFELERETELRFEVEASQSVQLELLTGMAEIFGTELTRNKKFTFDAGAKVAVFTWHGCSVQLSGRTEVAYVSKDTPMLLYLNTHTALEQMRRQAEKEEERGPRVMVVGPTDVGKSTVCRLLLNYAVRLGRRPTYVELDVGQGSVSIPGTMGALYIERPADVEEGFSIQAPLVYHFGSTTPGTNIKLYNKITSRLADVFNQRCEVNRRASVSGCVINTCGWVKGSGYQALVHAASAFEVDVVVVLDQERLYNELKRDLPHFVRTVLLPKSGGVVERSKDFRRECRDERIREYFYGFRGCFYPHAFNVKFSDVKIYKVGAPTIPDSCLPLGMSQEDNQLKLVPVTPGRDMVHHLLSVSTAEGTEENLSETSVAGFIVVTSVDLEHQVFTVLSPAPRPLPKNFLLIMDIRFMDLK
